According to PubChem BioAssay AID504444 (National Center for Advancing Translational Sciences (NCATS), 2011):
The campaign covered roughly 360,000 compounds. About 7,500 (2.1%) were called active. This list was built around the results that the source calls inconclusive (neither active nor inactive); the mix of calls is not that of the screen. The call rests on the fitted dose curve; in most records, active means well fitted inhibition curve with a large enough effect; inconclusive means small, poorly fitted or top-dose-only effect, or effect the other way; inactive means flat fitted curve, though single readings scatter. Potencies beside an inconclusive call are fits to weak or partial responses and may not hold up.

experiment: Nrf2 qHTS screen for inhibitors; details: A549 ARE-Fluc reporter, luciferase luminescence, 18-24 h; series mostly up to 46 µM; further: nearly all actives have a fitted effect of over 60% in size
How it was run: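 Nrf2 activity is the BugLite luminescence, read 15 min after reagent at room temperature, following CellTiter-Fluor cytotoxicity readout (30 min, 37C). Compound titrations were applied for 18-24 h to 5000 A549 ARE_Fluc cells/well in 5% FBS OPTI-MEM.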
Potency means the concentration at half of the fitted maximal effect.

SMILES	Potency
COc1ccc(CCNC(=O)Cc2ccc(OCc3ccccc3)c(OC)c2[N+](=O)[O-])cc1OCc1ccccc1	inconclusive: 29.1 µM [falling, single point]
c1ccc(CNCc2nnc(-c3cc4ccccc4[nH]3)s2)cc1	inconclusive: 16.4 µM [activator, partial curve, poor fit]
CC(=O)c1c(C)n(S(=O)(=O)c2ccc(Cl)cc2)c2ccc(NS(=O)(=O)c3ccc(Cl)cc3)cc12	inconclusive: 29.1 µM [falling, single point]
Brc1cccc(-c2n[nH]c(-c3ccccc3)n2)c1	inconclusive: 20.6 µM [activator, single point]
O=C(Nc1nccs1)c1ccccn1	inconclusive: 16.4 µM [activator, partial curve]
O=C(O)C1=C[C@H](c2csc3ccccc23)C[C@H](OCc2ccc(CO)cc2)O1	inactive
CC(C)c1ccc(OCC(=O)Nc2cc(-c3ccccc3)no2)cc1	inconclusive: 32.6 µM [falling, single point]
Cc1nnc(Sc2cc(C(=O)NC3CC3)c3ccccc3n2)s1	inconclusive: 0.461 µM [falling, partial curve, poor fit]
CN(C)P(=O)(Nc1cccc2ccccc12)Nc1cccc2ccccc12	inactive
CCOc1nc(Nc2ccc(OC)c(Cl)c2)nc(OCC)n1	inconclusive: 18.4 µM [falling, single point]
CC(=O)Nc1ccc(S(=O)(=O)N2CCN(c3nc(NC4CCCC4)c4ccccc4n3)CC2)cc1	inactive
c1csc(-c2nc(-c3ccncc3)no2)c1	inconclusive: 8.2 µM [activator, partial curve]
COc1ccc2c(c1)CCc1c(C(=O)Nc3ccn(Cc4ccc(C)cc4)n3)noc1-2	active: 16.4 µM
COc1ccccc1NC(=O)/C=C\c1ccco1	inconclusive: 9.2 µM [activator, partial curve]
CCOC(=O)c1ccc(N=c2scc(C)n2CC)cc1	inconclusive: 29.1 µM [activator, single point]
CC(C)CNC(=O)c1ccc(COc2ccc(Cl)cc2Cl)o1	inconclusive: 18.4 µM [falling, partial curve]
NC(=S)N/N=C/c1ccc(-c2cc(Cl)ccc2Cl)o1	inactive
COc1cc(/C=C/C(=O)NCc2ccccn2)cc(OC)c1OC	inconclusive: 0.092 µM [falling, full curve]
CCOc1ccc(CN(C)CCc2ccccn2)cc1	inconclusive: 29.1 µM [activator, single point]

Pulled by compound from the list above:
SMILES	Potency
CCOC(=O)c1ccc(N=c2scc(C)n2CC)cc1	inconclusive: 29.1 µM [activator, single point]
c1csc(-c2nc(-c3ccncc3)no2)c1	inconclusive: 8.2 µM [activator, partial curve]
